Measured values as given in article PMC9107480.
Results are given in words; binding and its absence hold for the method and conditions named. Binding seen in cells or lysates may run through a third protein. A yes stands for co-enrichment or nearness to the bait. Other partners may have been found.

Amino acid sequences for entries named in this document (tags omitted).
UniProt O60573: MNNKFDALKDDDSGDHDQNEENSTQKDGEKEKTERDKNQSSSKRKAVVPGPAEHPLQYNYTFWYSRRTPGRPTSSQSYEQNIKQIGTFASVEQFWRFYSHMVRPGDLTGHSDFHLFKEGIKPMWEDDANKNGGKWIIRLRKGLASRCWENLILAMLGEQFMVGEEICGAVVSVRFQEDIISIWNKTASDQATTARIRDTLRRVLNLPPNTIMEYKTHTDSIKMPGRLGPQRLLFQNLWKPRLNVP

Biological target: T1, RBM38 (endogenous) (human (endogenous; cell line of the IP not shown, all cell lines of the paper are human)) (UniProt Q9H0Z9)
T1 sequence: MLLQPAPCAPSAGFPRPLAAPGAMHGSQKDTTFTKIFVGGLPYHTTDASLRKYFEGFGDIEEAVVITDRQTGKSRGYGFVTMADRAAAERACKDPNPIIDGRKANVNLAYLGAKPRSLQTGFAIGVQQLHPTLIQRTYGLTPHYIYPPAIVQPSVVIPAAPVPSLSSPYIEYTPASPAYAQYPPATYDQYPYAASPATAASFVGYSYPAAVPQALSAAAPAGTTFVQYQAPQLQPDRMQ
Assay: affinity purification with mass spectrometry; co-immunoprecipitation combined with mass spectrometry, RBM38 as bait

eIF4E2 (endogenous) (from UniProt O60573 1-245)
binding: binds
